# Results deposited as PubChem BioAssay AID1259254 (NCATS, 2017).
# Aim: 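Finding genes that stop cells copying their DNA twice in one cycle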 (primary screen)
# Cells: human HCT116 colorectal cancer cells
# Reagent: single siRNA against human genes
# Timing: 3 days
# Measured: 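Nuclei stained with Hoechst and imaged; cell-cycle phase assigned by DNA content; G2 share scaled per plate, non-targeting siRNA 0%, GMNN siRNA 100%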
# Direction: G2 robust z-score and G2 cells, % of GMNN control: higher = more G2 cells, more excess DNA replication; raw share of cells in G2: higher = larger share of cells with G2 DNA content
# Call rule: 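An siRNA counts as active if its G2 robust z-score lies at least 5 MADs above the screen median; here such calls match roughly 38% of GMNN control or more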
# The whole screen tested about 59,000 reagents; this is a random part of them. About 1,550 of all reagents (2.6%) were called active. 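G2 share is only a proxy for re-replication; each gene was hit by three separate siRNAs, and active genes were retested.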 Raw values are not corrected between plates. The numbers tell different reagents against one gene apart. The record does not give: the amount of reagent.
gene symbol,reagent,G2 robust z-score,"G2 cells, % of GMNN control",raw share of cells in G2 (%),activity call
IRF2BPL (interferon regulatory factor 2 binding protein like),1,-0.509,-0.611,4.31,inactive
IRF2BPL (interferon regulatory factor 2 binding protein like),2,-1.01,-4.13,2.76,inactive
IRF2BPL (interferon regulatory factor 2 binding protein like),3,1.52,13.7,6.31,inactive
PRMT5 (protein arginine methyltransferase 5),1,1.18,11.3,7.5,inactive
PRMT5 (protein arginine methyltransferase 5),2,-1.27,-5.93,4.14,inactive
PRMT5 (protein arginine methyltransferase 5),3,-0.606,-1.3,5.13,inactive
BTBD16 (BTB domain containing 16),1,-0.225,1.38,2.22,inactive
BTBD16 (BTB domain containing 16),2,-0.663,-1.7,3.41,inactive
BTBD16 (BTB domain containing 16),3,1.48,13.4,7.32,inactive
CPNE7 (copine 7),1,-0.319,0.722,4.23,inactive
CPNE7 (copine 7),2,1.34,12.4,8.3,inactive
CPNE7 (copine 7),3,3.83,29.9,19.7,inactive
PDLIM7 (PDZ and LIM domain 7),1,1.48,13.4,9.96,inactive
PDLIM7 (PDZ and LIM domain 7),2,-0.877,-3.2,3.08,inactive
PDLIM7 (PDZ and LIM domain 7),3,-0.387,0.246,4.79,inactive
NRIP3 (nuclear receptor interacting protein 3),1,3.54,27.8,15.3,inactive
NRIP3 (nuclear receptor interacting protein 3),2,0.3,5.08,6.7,inactive
NRIP3 (nuclear receptor interacting protein 3),3,0.553,6.86,6.47,inactive
MARCHF1 (membrane associated ring-CH-type finger 1),1,-1.25,-5.82,1.91,inactive
MARCHF1 (membrane associated ring-CH-type finger 1),2,1.23,11.6,11.5,inactive
MARCHF1 (membrane associated ring-CH-type finger 1),3,-0.348,0.518,4.63,inactive
TMEM51 (transmembrane protein 51),1,-0.18,1.7,5.18,inactive
TMEM51 (transmembrane protein 51),2,1.13,10.9,8.67,inactive
TMEM51 (transmembrane protein 51),3,-0.316,0.743,3.37,inactive
PREB (prolactin regulatory element binding),1,-1.19,-5.43,2.55,inactive
PREB (prolactin regulatory element binding),2,0.534,6.73,5.5,inactive
PREB (prolactin regulatory element binding),3,0.36,5.5,7.28,inactive

Sorted by “raw share of cells in G2 (%)” (lowest first): some entries from above.
gene symbol,reagent,G2 robust z-score,"G2 cells, % of GMNN control",raw share of cells in G2 (%),activity call
BTBD16 (BTB domain containing 16),1,-0.225,1.38,2.22,inactive
IRF2BPL (interferon regulatory factor 2 binding protein like),2,-1.01,-4.13,2.76,inactive
PRMT5 (protein arginine methyltransferase 5),2,-1.27,-5.93,4.14,inactive
PRMT5 (protein arginine methyltransferase 5),3,-0.606,-1.3,5.13,inactive
IRF2BPL (interferon regulatory factor 2 binding protein like),3,1.52,13.7,6.31,inactive
PRMT5 (protein arginine methyltransferase 5),1,1.18,11.3,7.5,inactive

Next reagents:
gene symbol,reagent,G2 robust z-score,"G2 cells, % of GMNN control",raw share of cells in G2 (%),activity call
OLFM3 (olfactomedin 3),1,-0.64,-1.54,3.48,inactive
OLFM3 (olfactomedin 3),2,-0.827,-2.85,2.48,inactive
OLFM3 (olfactomedin 3),3,0.101,3.68,2.89,inactive
CRISP1 (cysteine rich secretory protein 1),1,0.31,5.15,7.72,inactive
CRISP1 (cysteine rich secretory protein 1),2,-0.19,1.63,4.68,inactive
CRISP1 (cysteine rich secretory protein 1),3,2.06,17.4,10.4,inactive
ETV5 (ETS variant transcription factor 5),1,-0.534,-0.792,3.15,inactive
ETV5 (ETS variant transcription factor 5),2,-0.401,0.144,4.91,inactive
ETV5 (ETS variant transcription factor 5),3,6.16,46.3,19.9,active
ATP5MC2 (ATP synthase membrane subunit c locus 2),1,0.612,7.27,7.66,inactive
ATP5MC2 (ATP synthase membrane subunit c locus 2),2,-0.379,0.299,4.1,inactive
ATP5MC2 (ATP synthase membrane subunit c locus 2),3,-1.18,-5.37,2.89,inactive
ARG1 (arginase 1),1,2.98,23.9,12.9,inactive
ARG1 (arginase 1),2,2.28,19,11.8,inactive
ARG1 (arginase 1),3,0.478,6.33,6.35,inactive
DLX5 (distal-less homeobox 5),1,0.803,8.61,8.04,inactive
DLX5 (distal-less homeobox 5),2,6.81,50.9,23.6,active
DLX5 (distal-less homeobox 5),3,-0.202,1.55,4.63,inactive
WDR45 (WD repeat domain 45),1,2.15,18.1,12.1,inactive
WDR45 (WD repeat domain 45),2,-0.198,1.57,4.78,inactive
WDR45 (WD repeat domain 45),3,-1.1,-4.77,1.39,inactive
